Laboratory results published in patent publication US5358712A, “Radiopharmaceutical agents for the detection of Alzheimer's disease” (Regents of the University of Minnesota, priority 1993, dated 1994).
At least one compound was matched to its structure with a doubt left.

Legend:
vesamicol receptor [1] = experiment: In vitro autoradiography of post-mortem human brain; format: binding; conditions: post-mortem human brain normal person
vesamicol receptor [2] = biological target: T1, vesamicol receptor (Tetronarce californica, UniProt P81721); experiment: Binding affinities of aminoalcohols at the vesamicol receptor (purified cholinergic synaptic vesicles); set-up: species or system Torpedo californica
T1 construct: no ATP or acetylcholine
T1 sequence (P81721 1-515): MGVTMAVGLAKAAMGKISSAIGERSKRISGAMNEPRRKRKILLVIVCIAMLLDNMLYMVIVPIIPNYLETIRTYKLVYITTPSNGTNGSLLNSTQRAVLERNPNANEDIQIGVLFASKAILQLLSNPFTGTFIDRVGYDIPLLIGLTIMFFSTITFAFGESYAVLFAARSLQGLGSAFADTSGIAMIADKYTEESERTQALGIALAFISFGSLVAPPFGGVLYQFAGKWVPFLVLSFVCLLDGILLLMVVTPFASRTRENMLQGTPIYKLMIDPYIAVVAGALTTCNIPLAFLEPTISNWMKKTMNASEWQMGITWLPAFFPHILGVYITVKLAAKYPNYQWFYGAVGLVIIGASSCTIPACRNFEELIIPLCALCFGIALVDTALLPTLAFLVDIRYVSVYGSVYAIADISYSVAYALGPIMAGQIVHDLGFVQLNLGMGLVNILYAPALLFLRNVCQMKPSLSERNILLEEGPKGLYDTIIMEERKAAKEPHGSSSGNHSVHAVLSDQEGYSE
Experimental: The compounds were evaluated in a purified preparation of cholinergic synaptic vesicles isolated from the electric organ of Torpedo californica. A full description of this assay was described earlier. However, the present study was carried out in the absence of ATP and acetylcholine. […] Nonlinear regression analysis was carried out with MINSQ (MicroMath Scientific Software, Salt Lake City, Utah.). Protein content was determined by the method of Bradford, using a bovine serum albumin standard.
^a The compounds were tested as the corresponding hydrochlorides,
using highly purified synaptic vesicles obtained from the electric organ
of Torpedo Californica, following a procedure described earlier (8).

Structure (SMILES) | density of the vesamicol receptor in cortex and nucleus basalis (vesamicol receptor [1]) | binding to the vesamicol receptor (in words) (vesamicol receptor [2])
OC(Cc1ccc([125I])cc1)CN1CCC(c2ccccc2)CC1 (single isomer, unassigned; (-)) [(-)-4-[^125 l]HIPP] [2-Hydroxy-3-(4-iodophenyl)-1-(4-phenylpiperidyl)propane] | high density | –
OC(Cc1ccc(Br)cc1)CN1CCN(c2ccccc2)CC1 (stereo not drawn) [Compound 15e, 3-(4-Bromophenyl)-2-hydroxy-1-(4-phenylpiperazinyl)propane] | – | significant reductions in binding affinity
OC(Cc1cccc(Br)c1)CN1CCN(c2ccccc2)CC1 (stereo not drawn) [Compound 15f, 3-(3-Bromophenyl)-2-hydroxy-1-(4-phenylpiperazinyl)propane] | – | significant reductions in binding affinity
